# From PubChem BioAssay AID540256 (National Center for Advancing Translational Sciences (NCATS), 2011)
# Screen size: about 300,000 compounds; about 3,700 (1.2%) were called active. The inconclusive results got no clear call from the source; some entries with a clear call stand among them for comparison. Calls follow the shape of the full dose curve; tested in HEK293 cells. Where the call is inconclusive, the potency comes from a doubtful curve fit.
# Experiment: qHTS for Inhibitors of binding or entry into cells for Lassa Virus; also: nearly all actives have a fitted effect of over 50% in size
# Conditions: Lassa virus pseudotype entry inhibition, cell reporter; activity change, negative = inhibition: at 37.9 µM (top of the series) unless noted
# % is scaled to controls: 0 for no effect and ±100 for the full control effect; potency is read from the fitted curve at half-maximal effect.
Compound,Potency,"activity change, negative = inhibition"
O=C1/C(=C\c2cccnc2)CN(Cc2ccccc2)C/C1=C\c1cccnc1,"inconclusive: 4.47 µM [inhibitor, full curve, poor fit]",
CCc1ccc(C2=C(C)C(N3CCC(C(=O)Nc4ccc(F)cc4)CC3)=NS2(=O)=O)cc1,"inconclusive: 35.5 µM [inhibitor, single point]",
O=C(Nc1cccc(C(=O)N2CCN(c3ccccc3)CC2)c1)c1nsc2ccccc12,,inactive: 0.793% [at 46.1 µM]
O=C(Nc1ccc2nc(SCC(=O)N3CCCc4ccccc43)sc2c1)c1ccccc1F,"inconclusive: 12.6 µM [inhibitor, partial curve, poor fit]",
Cc1ccc(NC(=O)CCn2nc(-c3ccccc3)c3ccccc3c2=O)c(C)c1,,inactive: -28.3% [at 46.1 µM]
COc1ccc(Nc2ccc3ccccc3c2)cc1,"inconclusive: 25.1 µM [inhibitor, single point]",
COc1cc([N+](=O)[O-])ccc1NC(=O)NCc1ccco1,"inconclusive: 31.6 µM [inhibitor, single point]",
CCn1c(-c2ccccc2)csc1=Nc1ccc(O)cc1,"inconclusive: 14.1 µM [inhibitor, partial curve, poor fit]",
Cc1ccc(N/C=C/C(=O)c2ccccc2)cc1C,"inconclusive: 14.6 µM [inhibitor, partial curve]",
O=C(OCc1cc(=O)n2nc(C3CC3)sc2n1)c1ccc(NC(=O)c2ccccc2Cl)cc1,"inconclusive: 2 µM [inhibitor, full curve, poor fit]",
CC(=O)Oc1ccc(C(=O)Nc2ccc(S(=O)(=O)N3CCOCC3)cc2)cc1,"inconclusive: 11.2 µM [inhibitor, partial curve, poor fit]",
COCCn1c(C)cc(C(=O)CSc2nc3ccccc3o2)c1C,"inconclusive: 7.3 µM [inhibitor, partial curve, poor fit]",
Cc1sc2nc(CSc3ccccc3)nc(NCCN(C)C)c2c1C,"inconclusive: 29.1 µM [inhibitor, single point]",
CCOCCCNC(=O)C(c1ccc(OC)cc1)N(Cc1cccs1)C(=O)c1ccccn1 (stereo not given),"inconclusive: 2.51 µM [inhibitor, full curve]",
Cc1ccc(C2=NN(S(=O)(=O)c3ccccc3)C(c3ccccc3O)C2)cc1 (stereo not given),"inconclusive: 35.5 µM [inhibitor, single point]",
CCN(CC(=O)NCc1ccc(Cl)cc1)C(=O)c1cccc(S(=O)(=O)Nc2ccc(OC)cc2)c1,"inconclusive: 11.2 µM [inhibitor, partial curve, poor fit]",
CC(C)c1ccc(S(=O)(=O)c2nnn3c2nc(NCc2cccs2)c2sccc23)cc1,"inconclusive: 3.55 µM [activator, partial curve, poor fit]",
Cc1cc(-n2c(C)cc(C(=O)CSc3nnnn3-c3ccccc3)c2C)no1,"inconclusive: 0.461 µM [inhibitor, full curve, poor fit]",
O=C(NCC(c1ccc2c(c1)OCO2)N1CCN(c2ccccc2)CC1)C(=O)Nc1ccccc1 (stereo not given),"inconclusive: 1.41 µM [inhibitor, partial curve, poor fit]",
CC1=Nc2cc(C(=O)O)ccc2Sc2ccc(C)cc21,,inactive: 13.3% [at 46.1 µM]
O=c1c2sc3ccccc3c2n(Cc2ccc(F)cc2)c(=O)n1Cc1ccco1,,inactive: -3.09% [at 46.1 µM]
CCc1ccc(NCc2cc3ccc(OC)cc3n(CC(=O)Nc3ccccc3OC)c2=O)cc1,"inconclusive: 8.91 µM [inhibitor, partial curve, poor fit]",

Compound,Potency,"activity change, negative = inhibition"
CC(=O)Nc1ccc(NC(=O)CSCc2ccccc2Cl)cc1,,inactive: -0.585%
CCN(CC)S(=O)(=O)c1ccc(OC)c(Nc2ncc(-c3ccccc3)o2)c1,"inconclusive: 22.3 µM [inhibitor, partial curve, poor fit]",
COc1cc(NC(=O)CNC(c2ccccc2)c2ccccc2)cc(OC)c1OC,"inconclusive: 35.5 µM [inhibitor, single point]",
Cn1nnc(NC(=O)c2ccc(C(C)(C)C)cc2)n1,,inactive: -8%
CC(=O)Nc1nc(C)c(Oc2ccc(Cl)cc2Cl)c(=O)[nH]1,"inconclusive: 11.2 µM [activator, single point]",
CC1=C(C(=O)Nc2ccc(C)cc2)C(c2cccs2)NC(=S)N1 (stereo not given),,inactive: -3.19%
CCOC(=O)C1CCN(C(=O)Cn2cnc3sc(C)c(S(=O)(=O)N4CCOCC4)c3c2=O)CC1,,inactive: 5.43%
O=C(c1ccc(N2CCOCC2)c([N+](=O)[O-])c1)N1CCN(c2ccccc2)CC1,"inconclusive: 11.2 µM [inhibitor, partial curve]",
CCOc1ccc(N(CC)C(=O)c2cc3c(s2)-c2ccc(Cl)cc2SC3)cc1,"inconclusive: 3.55 µM [inhibitor, single point]",
OCCN(CCO)Cc1csc2ccccc12,"inconclusive: 31.6 µM [activator, single point]",
Cc1cc(Cl)ccc1NC(=O)CS(=O)(=O)c1cccc2nsnc12,"inconclusive: 12.6 µM [activator, single point]",
O=S(=O)(Nc1ccc(S(=O)(=O)N2CCCCC2)cc1)c1ccc(Br)s1,,inactive: -1.68%
O=C(c1cnsn1)N1CCC(CO)(Cc2cccc(F)c2)CC1,,inactive: 27.1%
COc1cccc(S(=O)(=O)NCC(=O)Nc2ccc(C(C)(C)C)cc2)c1,"inconclusive: 0.092 µM [inhibitor, full curve, poor fit]",
NC(=O)c1ccccc1NC(=O)CCn1c(=S)oc2ccccc21,,inactive: -17.2% [at 46.1 µM]
CC(=O)c1ccc(NC(=O)C2CCCN(S(=O)(=O)c3ccc(Br)s3)C2)cc1 (stereo not given),,inactive: 4.3% [at 46.1 µM]
COc1ccc(-c2nnc(-c3ccc4ccccc4c3)o2)cc1,"inconclusive: 11.2 µM [activator, partial curve]",
CCCOC(=O)c1ccc(NC(=O)C2CC(=O)N(c3ccc(C)cc3)C2)cc1 (stereo not given),,inactive: 28.7% [at 46.1 µM]
CC1=C(C(=O)NCc2ccccc2)C(c2cccs2)n2ncnc2N1 (stereo not given),"inconclusive: 22.4 µM [inhibitor, single point]",
Cc1cc(C)c2c(n1)sc1c(=O)n(-c3ccccc3)c(=O)[nH]c12,"inconclusive: 1.26 µM [inhibitor, single point]",
COc1cc(O)ccc1-c1nc2ccc(Br)cn2c1Nc1ccccc1C,"inconclusive: 22.4 µM [inhibitor, single point]",
CC(NC(=S)Nc1ccc(OC(F)F)c(Cl)c1)C(C)(C)C (stereo not given),"inconclusive: 17.8 µM [inhibitor, partial curve, poor fit]",

Compound,Potency,"activity change, negative = inhibition"
COc1cccc(CNCCc2c[nH]c3ccccc23)c1OCc1ccccc1F,"inconclusive: 29.1 µM [inhibitor, single point]",
CC(/C=N/n1c(-c2ccc(C)cc2)n[nH]c1=S)=C\c1ccco1,"inconclusive: 11.2 µM [inhibitor, single point]",
CCSc1ncc(Cl)c(C(=O)Nc2ccc(S(=O)(=O)N3CCCCC3CC)cc2)n1 (stereo not given),"inconclusive: 7.08 µM [inhibitor, partial curve, poor fit]",
CC(Oc1ccc(Br)cc1)C(=O)Nc1ccc(S(=O)(=O)N(C)C2CCN(C)CC2)cc1 (stereo not given),"inconclusive: 20 µM [inhibitor, partial curve, poor fit]",
COc1ccc(C(=O)c2cc([N+](=O)[O-])ccc2N2CCCC2)cc1,"inconclusive: 1.78 µM [inhibitor, full curve]",
COc1ccc(CCNC(=O)C(=O)NCC2CCCN2S(=O)(=O)c2ccccc2)cc1OC (stereo not given),"inconclusive: 12.6 µM [inhibitor, partial curve, poor fit]",
COc1cc(Cl)ccc1OCc1cc(C(=O)N2C[C@]3(C)C[C@H]2CC(C)(C)C3)no1,"inconclusive: 20 µM [inhibitor, single point]",
O=C(Nc1cc(Cl)ccc1O)c1snnc1-c1ccccc1,"inconclusive: 29.1 µM [inhibitor, single point]",
CCCN(CCC)C(=O)Cn1c(=O)n(-c2ccc(CC)cc2)c(=O)c2c3c(sc21)CCC3,,inactive: 8.04% [at 46.1 µM]
O=C(COC(=O)c1ccc(O)cc1)Nc1cccc(S(=O)(=O)N2CCCCC2)c1,"inconclusive: 35.5 µM [inhibitor, single point]",
Cc1nnnn1/C(=C\c1ccccc1)C(=O)OCC(=O)NC1CCCCC1,"inconclusive: 35.5 µM [inhibitor, single point]",
Oc1ccccc1CNCCCNCc1ccccc1O,"inconclusive: 18.3 µM [inhibitor, single point]",
COc1ccc(NC(=O)C2(S(=O)(=O)c3ccc(C)cc3)CC2)c(OC)c1,,inactive: -8.07% [at 46.1 µM]
COCC(=O)Nc1ccccc1Br,"inconclusive: 5.62 µM [activator, full curve, poor fit]",
CC1(C)SC(=S)N(/N=C/c2ccc(O)cc2)C1N(O)C(=O)Nc1ccc([N+](=O)[O-])cc1 (stereo not given),"inconclusive: 7.94 µM [inhibitor, partial curve, poor fit]",
c1ccc(-n2cc(CN3CCCC3)c(-c3ccc4c(c3)OCO4)n2)cc1,"inconclusive: 35.5 µM [inhibitor, single point]",
Cc1cc2c(s1)c1cnn(Cc3ccccc3F)c(=O)c1n2C,,inactive: 8.06%
Cc1noc(-c2ccc(N(C)Cc3ccccc3)c([N+](=O)[O-])c2)n1,"inconclusive: 35.5 µM [activator, single point]",
Cc1cc(=O)c2ccccc2n1Cc1ccccc1,,inactive: -2.3% [at 46.1 µM]
Cn1nc(C(F)(F)F)c(C#N)c1N1CCN(c2ccccc2F)CC1,"inconclusive: 15.8 µM [activator, partial curve, poor fit]",
NS(=O)(=O)c1ccc(NC(=O)/C=C/c2cccc(Cl)c2)cc1,,inactive: 0.962%

# Some values from the results shown:
# Potency, CC(/C=N/n1c(-c2ccc(C)cc2)n[nH]c1=S)=C\c1ccco1 reads inconclusive: 11.2 µM [inhibitor, single point]
# Potency, COc1ccc(C(=O)c2cc([N+](=O)[O-])ccc2N2CCCC2)cc1 reads inconclusive: 1.78 µM [inhibitor, full curve]
# Potency, CCSc1ncc(Cl)c(C(=O)Nc2ccc(S(=O)(=O)N3CCCCC3CC)cc2)n1 (stereo not given) reads inconclusive: 7.08 µM [inhibitor, partial curve, poor fit]
